Measured values reported in article PMC10509710.
These are yes or no findings as the source states them, for the method shown. Some binding calls cover weakened binding; strength is not graded here.

Target: human full-length scavenger receptor class B type 1 (SR-B1), glycosylated (human) (UniProt Q8WTV0)
Assay: native gel or EMSA; nondenaturing perfluorooctanoic acid (PFO)-PAGE on 8% polyacrylamide gels of sonicated lysates of infected Sf9 cells (72 h), immunoblot against SR-B1 or CD36

B1: human full-length scavenger receptor class B type 1 (SR-B1), glycosylated (receptor, UniProt Q8WTV0-2 1-509)
chain: MGCSAKARWAAGALGVAGLLCAVLGAVMIVMVPSLIKQQVLKNVRIDPSSLSFNMWKEIPIPFYLSVYFFDVMNPSEILKGEKPQVRERGPYVYREFRHKSNITFNNNDTVSFLEYRTFQFQPSKSHGSESDYIVMPNILVLGAAVMMENKPMTLKLIMTLAFTTLGERAFMNRTVGEIMWGYKDPLVNLINKYFPGMFPFKDKFGLFAELNNSDSGLFTVFTGVQNISRIHLVDKWNGLSKVDFWHSDQCNMINGTSGQMWPPFMTPESSLEFYSPEACRSMKLMYKESGVFEGIPTYRFVAPKTLFANGSIYPPNEGFCPCLESGIQNVSTCRFSAPLFLSHPHFLNADPVLAEAVTGLHPNQEAHSLFLDIHPVTGIPMNCSVKLQLSLYMKSVAGIGQTGKIEPVVLPLLWFAESGAMEGETLHTFYTQLVLMPKVMHYAQYVLLALGCVLLLVPVICQIRSQEKCYLFWSSSKKGSKDKEAIQAYSESLMTSAPKGSVLQEAKL
modifications: glycosylated (Sf9); labeled with Cy5 via lysine residues in the MST
binding: binds
